Results deposited as PubChem BioAssay AID743121 (NCATS, 2013)
Purpose: 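Knock-downs that sensitise breast cancer cells to camptothecin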 (primary screen). Cells: MDA-MB-231 cells, a human breast cancer line. Reagents: single siRNA against human genes, 20 nM siRNA (0.8 pmol per well). Duration: 120 h (drug added 48 h after transfection, read 72 h later). Treatment: camptothecin 20 nM (about EC30) for 72 h; vehicle 0.1% DMSO in parallel plates. Measured: 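Cell viability by ATP luminescence (CellTiter-Glo) as % of non-targeting siRNA wells, and the log2 ratio of viability without drug over viability with camptothecin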. Scale: log2 vehicle/camptothecin viability: higher = stronger sensitisation to camptothecin; viability with camptothecin: higher = more viable cells. Hit rule: 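Each gene scored by redundant siRNA activity (RSA) over its individual siRNA ratios; a gene is called active at p < 0.001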.
The deposit covers about 26,000 reagents; shown is an unselected part. 167 of them (0.63%) count as active. 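Calls are per gene from RSA p-values that are not deposited; an individual active-marked siRNA can sensitise only weakly.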 The numbers tell different reagents against one gene apart. Not all columns of the deposit are shown.

AKR7A3 (aldo-keto reductase family 7 member A3) #1 gave log2 vehicle/camptothecin viability 0.217; viability with camptothecin (% of control) = 60; inactive.
Depletion of AKR7A3 (aldo-keto reductase family 7 member A3) #2 gave: log2 vehicle/camptothecin viability -0.144; viability with camptothecin (% of control) = 115; inactive.
AKR7A3 (aldo-keto reductase family 7 member A3) #3 gave log2 vehicle/camptothecin viability -0.195; viability with camptothecin (% of control) = 91.1; inactive.
AKR7A3 (aldo-keto reductase family 7 member A3) #4 showed log2 vehicle/camptothecin viability 0.131; viability with camptothecin (% of control) = 66.2; inactive.
CCL14 (C-C motif chemokine ligand 14) #1 showed log2 vehicle/camptothecin viability 1.55; viability with camptothecin (% of control) = 7.97; inactive.
CCL14 (C-C motif chemokine ligand 14) #2 gave log2 vehicle/camptothecin viability 0.0271; viability with camptothecin (% of control) = 94.7; inactive.
For CCL14 (C-C motif chemokine ligand 14) #3, the entry reads log2 vehicle/camptothecin viability -0.47; viability with camptothecin (% of control) = 87.7; inactive.
Against CCL14 (C-C motif chemokine ligand 14) #4 the deposit lists log2 vehicle/camptothecin viability -0.0133; viability with camptothecin (% of control) = 65.8; inactive.
For SLC6A7 #1 the deposit lists log2 vehicle/camptothecin viability 0.43; viability with camptothecin (% of control) = 68.3; inactive.
SLC6A7 #2 scored log2 vehicle/camptothecin viability -0.213; viability with camptothecin (% of control) = 56.8; inactive.
After knock-down of SLC6A7 #3, the record shows log2 vehicle/camptothecin viability -0.235; viability with camptothecin (% of control) = 99.6; inactive.
Against SLC6A7 #4, the values are log2 vehicle/camptothecin viability 0.619; viability with camptothecin (% of control) = 42.2; inactive.
Silencing of NEK6 (NIMA related kinase 6) #1 gave: log2 vehicle/camptothecin viability 0.24; viability with camptothecin (% of control) = 82; inactive.
Against NEK6 (NIMA related kinase 6) #2 the deposit lists log2 vehicle/camptothecin viability -0.114; viability with camptothecin (% of control) = 106; inactive.
NEK6 (NIMA related kinase 6) #3 showed log2 vehicle/camptothecin viability -0.166; viability with camptothecin (% of control) = 90.7; inactive.
After knock-down of NEK6 (NIMA related kinase 6) #4, the screen gave log2 vehicle/camptothecin viability -0.0314; viability with camptothecin (% of control) = 53.2; inactive.
Silencing of CIB2 (calcium and integrin binding family member 2) #1 resulted in: log2 vehicle/camptothecin viability -0.388; viability with camptothecin (% of control) = 108; inactive.
For CIB2 (calcium and integrin binding family member 2) #2, the values are log2 vehicle/camptothecin viability -0.425; viability with camptothecin (% of control) = 63.4; inactive.
Knock-down of CIB2 (calcium and integrin binding family member 2) #3 came out at: log2 vehicle/camptothecin viability 0.126; viability with camptothecin (% of control) = 74.3; inactive.
Depletion of CIB2 (calcium and integrin binding family member 2) #4 resulted in: log2 vehicle/camptothecin viability -0.235; viability with camptothecin (% of control) = 103; inactive.
With knock-down of CMKLR2 (chemerin chemokine-like receptor 2) #1, the screen gave log2 vehicle/camptothecin viability 0.307; viability with camptothecin (% of control) = 83.9; inactive.
Knock-down of CMKLR2 (chemerin chemokine-like receptor 2) #2 resulted in: log2 vehicle/camptothecin viability -0.212; viability with camptothecin (% of control) = 95.4; inactive.
CMKLR2 (chemerin chemokine-like receptor 2) #3 scored log2 vehicle/camptothecin viability -0.271; viability with camptothecin (% of control) = 65.6; inactive.
Knock-down of CMKLR2 (chemerin chemokine-like receptor 2) #4 resulted in: log2 vehicle/camptothecin viability -0.0923; viability with camptothecin (% of control) = 88.6; inactive.

3 of these entries, set out differently.
CIB2 (calcium and integrin binding family member 2) #4
- log2 vehicle/camptothecin viability: -0.235
- viability with camptothecin (% of control): 103
- activity call: inactive

CMKLR2 (chemerin chemokine-like receptor 2) #1
- log2 vehicle/camptothecin viability: 0.307
- viability with camptothecin (% of control): 83.9
- activity call: inactive

CMKLR2 (chemerin chemokine-like receptor 2) #2
- log2 vehicle/camptothecin viability: -0.212
- viability with camptothecin (% of control): 95.4
- activity call: inactive
